This is an account of results in publication PMC6709923.

Sequences of proteins named here, by UniProt entry; tags and fusion partners are left off. Residues count along the entry.
UniProt P19878, residues 1-155: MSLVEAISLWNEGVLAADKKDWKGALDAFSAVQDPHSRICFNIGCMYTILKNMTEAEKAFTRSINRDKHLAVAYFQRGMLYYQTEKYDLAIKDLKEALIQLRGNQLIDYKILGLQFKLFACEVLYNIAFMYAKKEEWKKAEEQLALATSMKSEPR
UniProt O70145: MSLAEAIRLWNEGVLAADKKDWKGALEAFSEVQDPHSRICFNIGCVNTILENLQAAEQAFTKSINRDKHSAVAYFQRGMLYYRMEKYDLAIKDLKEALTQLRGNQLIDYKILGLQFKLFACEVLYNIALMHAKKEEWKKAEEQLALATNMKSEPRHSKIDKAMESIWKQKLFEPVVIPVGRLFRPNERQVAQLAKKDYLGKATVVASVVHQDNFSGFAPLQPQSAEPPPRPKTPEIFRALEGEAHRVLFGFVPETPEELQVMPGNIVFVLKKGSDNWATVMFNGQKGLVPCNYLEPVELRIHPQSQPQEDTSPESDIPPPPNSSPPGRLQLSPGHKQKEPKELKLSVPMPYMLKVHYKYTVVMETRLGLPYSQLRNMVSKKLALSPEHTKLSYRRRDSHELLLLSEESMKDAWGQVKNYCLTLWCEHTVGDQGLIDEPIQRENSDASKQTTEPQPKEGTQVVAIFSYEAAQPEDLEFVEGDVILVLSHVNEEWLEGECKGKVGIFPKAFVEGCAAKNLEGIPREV

For assay [1], the target named is T1, Fas-associated factor 1 (endogenous, mouse macrophages) (mouse (endogenous in Raw264.7 and BMDMs)) (UniProt P54731).
T1 sequence: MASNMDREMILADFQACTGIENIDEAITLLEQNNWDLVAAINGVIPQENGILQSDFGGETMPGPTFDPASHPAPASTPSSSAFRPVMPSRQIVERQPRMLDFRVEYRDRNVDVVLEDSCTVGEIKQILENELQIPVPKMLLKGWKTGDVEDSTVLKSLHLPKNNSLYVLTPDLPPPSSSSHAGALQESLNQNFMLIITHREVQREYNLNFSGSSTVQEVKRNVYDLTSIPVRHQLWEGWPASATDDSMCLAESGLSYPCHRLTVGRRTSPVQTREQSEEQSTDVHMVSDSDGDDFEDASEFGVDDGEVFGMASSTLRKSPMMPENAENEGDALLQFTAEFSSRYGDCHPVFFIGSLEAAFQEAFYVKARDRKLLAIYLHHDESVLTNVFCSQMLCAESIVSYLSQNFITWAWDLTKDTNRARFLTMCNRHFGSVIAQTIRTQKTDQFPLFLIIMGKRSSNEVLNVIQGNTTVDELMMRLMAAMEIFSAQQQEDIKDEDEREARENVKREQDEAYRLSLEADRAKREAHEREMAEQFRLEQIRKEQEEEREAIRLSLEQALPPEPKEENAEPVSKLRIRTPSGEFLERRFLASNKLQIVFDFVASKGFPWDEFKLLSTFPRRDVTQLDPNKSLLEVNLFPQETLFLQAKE
As to the kind of experiment: co-IP; endogenous proteins; BMDMs after control or FAF1 siRNA, infected with L. monocytogenes for the indicated times; anti-FAF1 antibody; immunoblot with anti-p67phox. (In general: A western blot detects proteins with antibodies after separation by electrophoresis.)

For assay [2], the target named is V5-tagged FAF1 wild-type (stable in Raw264.7) (UniProt Q9UNN5). As to the kind of experiment: co-IP; Raw264.7 cells stably holding empty vector, V5-tagged FAF1 wild-type or FAF1 Δ330–489, without stimulation; IP with anti-V5 antibody; immunoblot for endogenous p67phox and p47phox.
Assay [3] concerns the target T1, Fas-associated factor 1 (endogenous, mouse macrophages) (mouse (endogenous in Raw264.7 and BMDMs)). As to the kind of experiment: co-IP; endogenous proteins; mock- or L. monocytogenes-infected Raw264.7 cells harvested at various times (also after control or FAF1 siRNA); RIPA lysate, anti-FAF1 antibody, protein A/G agarose; immunoblot.
The target in assay [4] is GST-tagged p67phox 4X tetratricopeptide repeat (TPR) domain (UniProt P19878). In words: pull-down; HEK293T cells co-transfected with GST-tagged domain constructs and the V5-tagged partner; RIPA lysate, pre-cleared with sepharose 6B, glutathione sepharose 4B overnight at 4°C, washed with 1% nonidet P-40; immunoblot with anti-V5.
The target of assay [5] is V5-tagged FAF1 Δ330–489 (stable in Raw264.7) (UniProt Q9UNN5). As to the kind of experiment: co-IP; Raw264.7 cells stably holding empty vector, V5-tagged FAF1 wild-type or FAF1 Δ330–489, without stimulation; IP with anti-V5 antibody; immunoblot for endogenous p67phox and p47phox.
Assay [6] deals with V5-tagged FAF1 wild-type (stable in Raw264.7) (UniProt Q9UNN5). The assay is described as above. This is another data set of the same source.

Like-named read-outs stand apart in the source and are kept apart here. These are yes or no findings as the source states them, for the method shown. Binding seen in cells or lysates may run through a third protein. Some entries that bind do so weakly or less than the wild type.

Regarding “p67phox (endogenous, mouse macrophages) (from UniProt O70145 1-525)”, the binding result in assay [1], in assay [2] and in assay [3] was “binds” each time.
In the case of “V5-tagged FAF1 (HEK293T) (from UniProt Q9UNN5 1-650)”, in assay [4], the binding entry is on record as “binds”.

B1: p40phox (endogenous, Raw264.7) (protein, UniProt P97369 1-339)
chain: MALAQQLRSESDFEQLPDDVAVSANIADIEEKRGFTSHFVFVIEVKTKGGSKYLIYRRYRQFYALQSKLEERFGPESKNSPFTCSLPTLPAKVYMGAKQEIAETRIPALNAYMKNLLSLPVCVLMDPDVRIFFYQSAYDAEQVPQALRRLRPRTRKIKGVSPQGAIMDRMEAPRAEALFDFTGNSKLELSFKAGDVIFLLSKINKDWLEGTSQGATGIFPGSFVKILKDFPEDEDTTNWLRCYFYEDTGKTIKDIAVEEDLSSTPLFKDLLALMRREFQREDIALSYQDAEGDLVRLLSDEDVGLMVKQARGLPSQKRLFPWKLHVTQKDNYSVYNTVP
Turning to B1, in assay [3], the binding result is “binds”.

B2: p47phox (endogenous, Raw264.7) (protein, UniProt Q09014 1-390)
chain: MGDTFIRHIALLGFEKRFIPSQHYVYMFLVKWQDLSEKVVYRKFTEIYEFHKMLKEMFPIEAGEIHTENRVIPHLPAPRWFDGQRAAESRQGTLTEYFNGLMGLPVKISRCPHLLDFFKVRPDDLKLPTDSQAKKPETYLVPKDGKNNVADITGPIILQTYRAIADYEKSSGTEMTVATGDVVDVVEKSESGWWFCQMKTKRGWVPASYLEPLDSPDEAEDPDPNYAGEPYVTIKAYAAVEEDEMSLSEGEAIEVIHKLLDGWWVVRKGDITGYFPSMYLQKAGEEITQAQRQIRGRGAPPRRSTIRNAQSIHQRSRKRLSQDTYRRNSVRFLQQRRRPGRPGPLSTDGTKDNPSTPRVKPQPAVPPRPSSDLILHRCTESTKRKLTSAV
In the case of B2, the binding result is “binds weakly” in assay [5], “binds” in assay [6] and “binds” in assay [3].
